Laboratory results: the supplement of paper PMC10849652
The other results are listed elsewhere or left out.

Chains of the proteins cited; added tags and fusions are not shown. Lines headed by an entry give the natural chain unless they say otherwise; changes in a name come on top.
UniProt P16219: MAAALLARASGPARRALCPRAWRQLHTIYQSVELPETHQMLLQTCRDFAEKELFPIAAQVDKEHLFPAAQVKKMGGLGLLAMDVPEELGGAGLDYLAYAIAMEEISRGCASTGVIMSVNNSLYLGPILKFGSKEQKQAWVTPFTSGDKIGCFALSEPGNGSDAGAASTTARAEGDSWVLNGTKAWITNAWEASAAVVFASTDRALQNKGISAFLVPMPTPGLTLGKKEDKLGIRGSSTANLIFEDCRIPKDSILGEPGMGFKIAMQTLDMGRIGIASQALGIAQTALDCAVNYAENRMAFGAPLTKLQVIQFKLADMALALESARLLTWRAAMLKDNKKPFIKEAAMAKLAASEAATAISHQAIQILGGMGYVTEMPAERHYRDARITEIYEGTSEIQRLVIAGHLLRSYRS
UniProt Q9NPJ3: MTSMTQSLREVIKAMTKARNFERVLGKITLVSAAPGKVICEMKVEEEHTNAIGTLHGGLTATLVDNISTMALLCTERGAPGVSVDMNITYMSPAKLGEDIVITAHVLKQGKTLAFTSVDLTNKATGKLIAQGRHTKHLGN
UniProt P28288: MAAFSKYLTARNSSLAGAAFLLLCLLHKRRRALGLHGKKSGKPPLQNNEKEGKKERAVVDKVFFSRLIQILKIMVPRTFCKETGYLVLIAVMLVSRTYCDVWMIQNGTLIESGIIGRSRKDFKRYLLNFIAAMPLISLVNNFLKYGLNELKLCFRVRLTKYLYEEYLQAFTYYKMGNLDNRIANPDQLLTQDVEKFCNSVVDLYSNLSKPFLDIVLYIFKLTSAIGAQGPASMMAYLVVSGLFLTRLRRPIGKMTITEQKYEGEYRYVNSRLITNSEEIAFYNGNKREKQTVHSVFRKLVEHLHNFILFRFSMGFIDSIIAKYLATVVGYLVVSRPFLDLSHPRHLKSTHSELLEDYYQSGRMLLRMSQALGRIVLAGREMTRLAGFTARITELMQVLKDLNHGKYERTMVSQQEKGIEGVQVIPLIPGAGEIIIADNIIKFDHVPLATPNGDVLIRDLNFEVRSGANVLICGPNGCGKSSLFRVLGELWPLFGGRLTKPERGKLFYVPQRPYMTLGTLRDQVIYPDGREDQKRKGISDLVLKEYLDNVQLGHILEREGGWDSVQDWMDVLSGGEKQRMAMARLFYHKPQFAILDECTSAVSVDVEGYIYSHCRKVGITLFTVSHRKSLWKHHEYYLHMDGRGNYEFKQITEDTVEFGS
UniProt Q5JTZ9, whole entry, looked up: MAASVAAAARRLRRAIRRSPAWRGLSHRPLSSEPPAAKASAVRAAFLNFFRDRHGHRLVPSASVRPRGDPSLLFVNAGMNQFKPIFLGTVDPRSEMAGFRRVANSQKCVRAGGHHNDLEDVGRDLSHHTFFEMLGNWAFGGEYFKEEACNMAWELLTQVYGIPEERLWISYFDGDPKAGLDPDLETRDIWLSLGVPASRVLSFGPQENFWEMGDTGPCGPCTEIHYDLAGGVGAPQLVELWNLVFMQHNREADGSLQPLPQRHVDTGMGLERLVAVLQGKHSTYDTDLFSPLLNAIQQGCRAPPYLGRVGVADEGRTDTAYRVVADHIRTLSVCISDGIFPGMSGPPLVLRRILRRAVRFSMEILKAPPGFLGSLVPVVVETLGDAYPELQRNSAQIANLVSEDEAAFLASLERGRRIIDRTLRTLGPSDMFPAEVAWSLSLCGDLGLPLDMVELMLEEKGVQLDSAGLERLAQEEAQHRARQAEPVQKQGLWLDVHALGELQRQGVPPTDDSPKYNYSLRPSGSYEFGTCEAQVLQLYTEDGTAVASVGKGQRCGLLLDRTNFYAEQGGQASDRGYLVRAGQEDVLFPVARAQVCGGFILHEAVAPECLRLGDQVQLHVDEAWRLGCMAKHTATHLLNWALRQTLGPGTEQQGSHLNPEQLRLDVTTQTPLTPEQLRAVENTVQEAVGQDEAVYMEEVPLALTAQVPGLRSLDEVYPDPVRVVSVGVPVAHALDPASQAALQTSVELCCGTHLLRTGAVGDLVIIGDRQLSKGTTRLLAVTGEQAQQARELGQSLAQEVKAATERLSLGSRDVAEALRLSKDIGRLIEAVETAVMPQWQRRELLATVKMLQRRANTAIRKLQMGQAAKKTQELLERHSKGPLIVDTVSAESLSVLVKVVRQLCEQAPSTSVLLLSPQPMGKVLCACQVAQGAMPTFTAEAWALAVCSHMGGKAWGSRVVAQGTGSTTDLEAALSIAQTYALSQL
UniProt Q96IU4: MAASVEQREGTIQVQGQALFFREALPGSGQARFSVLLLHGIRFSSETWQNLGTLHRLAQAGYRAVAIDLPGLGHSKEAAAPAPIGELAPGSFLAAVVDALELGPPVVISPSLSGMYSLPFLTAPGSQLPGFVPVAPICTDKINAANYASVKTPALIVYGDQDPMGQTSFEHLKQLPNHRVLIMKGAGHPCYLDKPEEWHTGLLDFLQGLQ
UniProt P42684, whole entry, looked up: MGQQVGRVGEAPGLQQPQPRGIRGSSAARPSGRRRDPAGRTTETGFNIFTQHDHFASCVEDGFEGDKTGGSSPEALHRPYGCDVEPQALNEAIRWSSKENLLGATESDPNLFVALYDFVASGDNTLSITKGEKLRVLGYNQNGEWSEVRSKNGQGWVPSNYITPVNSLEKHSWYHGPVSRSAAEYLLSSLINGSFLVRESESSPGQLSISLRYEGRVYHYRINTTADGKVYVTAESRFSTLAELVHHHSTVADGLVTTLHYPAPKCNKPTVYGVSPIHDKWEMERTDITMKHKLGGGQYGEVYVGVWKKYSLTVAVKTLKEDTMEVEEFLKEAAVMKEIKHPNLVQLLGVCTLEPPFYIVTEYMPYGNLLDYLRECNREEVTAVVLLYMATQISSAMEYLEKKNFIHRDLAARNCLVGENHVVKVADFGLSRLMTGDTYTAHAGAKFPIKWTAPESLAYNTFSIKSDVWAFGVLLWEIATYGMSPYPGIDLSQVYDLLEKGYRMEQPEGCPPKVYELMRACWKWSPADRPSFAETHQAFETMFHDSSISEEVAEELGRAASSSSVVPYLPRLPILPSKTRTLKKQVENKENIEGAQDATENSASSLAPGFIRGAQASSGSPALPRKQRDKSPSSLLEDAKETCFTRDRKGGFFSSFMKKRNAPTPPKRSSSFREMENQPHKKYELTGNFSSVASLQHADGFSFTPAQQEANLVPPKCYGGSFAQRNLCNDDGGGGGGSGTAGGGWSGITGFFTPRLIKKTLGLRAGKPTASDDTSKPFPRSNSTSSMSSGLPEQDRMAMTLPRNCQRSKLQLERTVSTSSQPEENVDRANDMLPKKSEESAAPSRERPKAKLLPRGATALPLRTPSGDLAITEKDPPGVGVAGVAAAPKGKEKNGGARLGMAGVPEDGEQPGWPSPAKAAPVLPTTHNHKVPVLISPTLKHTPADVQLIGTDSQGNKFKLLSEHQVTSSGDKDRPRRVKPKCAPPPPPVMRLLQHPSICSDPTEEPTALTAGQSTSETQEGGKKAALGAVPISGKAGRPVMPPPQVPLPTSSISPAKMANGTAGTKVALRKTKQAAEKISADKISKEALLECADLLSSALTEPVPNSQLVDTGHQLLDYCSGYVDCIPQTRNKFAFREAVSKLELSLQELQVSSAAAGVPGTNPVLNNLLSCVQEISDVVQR
UniProt P78363: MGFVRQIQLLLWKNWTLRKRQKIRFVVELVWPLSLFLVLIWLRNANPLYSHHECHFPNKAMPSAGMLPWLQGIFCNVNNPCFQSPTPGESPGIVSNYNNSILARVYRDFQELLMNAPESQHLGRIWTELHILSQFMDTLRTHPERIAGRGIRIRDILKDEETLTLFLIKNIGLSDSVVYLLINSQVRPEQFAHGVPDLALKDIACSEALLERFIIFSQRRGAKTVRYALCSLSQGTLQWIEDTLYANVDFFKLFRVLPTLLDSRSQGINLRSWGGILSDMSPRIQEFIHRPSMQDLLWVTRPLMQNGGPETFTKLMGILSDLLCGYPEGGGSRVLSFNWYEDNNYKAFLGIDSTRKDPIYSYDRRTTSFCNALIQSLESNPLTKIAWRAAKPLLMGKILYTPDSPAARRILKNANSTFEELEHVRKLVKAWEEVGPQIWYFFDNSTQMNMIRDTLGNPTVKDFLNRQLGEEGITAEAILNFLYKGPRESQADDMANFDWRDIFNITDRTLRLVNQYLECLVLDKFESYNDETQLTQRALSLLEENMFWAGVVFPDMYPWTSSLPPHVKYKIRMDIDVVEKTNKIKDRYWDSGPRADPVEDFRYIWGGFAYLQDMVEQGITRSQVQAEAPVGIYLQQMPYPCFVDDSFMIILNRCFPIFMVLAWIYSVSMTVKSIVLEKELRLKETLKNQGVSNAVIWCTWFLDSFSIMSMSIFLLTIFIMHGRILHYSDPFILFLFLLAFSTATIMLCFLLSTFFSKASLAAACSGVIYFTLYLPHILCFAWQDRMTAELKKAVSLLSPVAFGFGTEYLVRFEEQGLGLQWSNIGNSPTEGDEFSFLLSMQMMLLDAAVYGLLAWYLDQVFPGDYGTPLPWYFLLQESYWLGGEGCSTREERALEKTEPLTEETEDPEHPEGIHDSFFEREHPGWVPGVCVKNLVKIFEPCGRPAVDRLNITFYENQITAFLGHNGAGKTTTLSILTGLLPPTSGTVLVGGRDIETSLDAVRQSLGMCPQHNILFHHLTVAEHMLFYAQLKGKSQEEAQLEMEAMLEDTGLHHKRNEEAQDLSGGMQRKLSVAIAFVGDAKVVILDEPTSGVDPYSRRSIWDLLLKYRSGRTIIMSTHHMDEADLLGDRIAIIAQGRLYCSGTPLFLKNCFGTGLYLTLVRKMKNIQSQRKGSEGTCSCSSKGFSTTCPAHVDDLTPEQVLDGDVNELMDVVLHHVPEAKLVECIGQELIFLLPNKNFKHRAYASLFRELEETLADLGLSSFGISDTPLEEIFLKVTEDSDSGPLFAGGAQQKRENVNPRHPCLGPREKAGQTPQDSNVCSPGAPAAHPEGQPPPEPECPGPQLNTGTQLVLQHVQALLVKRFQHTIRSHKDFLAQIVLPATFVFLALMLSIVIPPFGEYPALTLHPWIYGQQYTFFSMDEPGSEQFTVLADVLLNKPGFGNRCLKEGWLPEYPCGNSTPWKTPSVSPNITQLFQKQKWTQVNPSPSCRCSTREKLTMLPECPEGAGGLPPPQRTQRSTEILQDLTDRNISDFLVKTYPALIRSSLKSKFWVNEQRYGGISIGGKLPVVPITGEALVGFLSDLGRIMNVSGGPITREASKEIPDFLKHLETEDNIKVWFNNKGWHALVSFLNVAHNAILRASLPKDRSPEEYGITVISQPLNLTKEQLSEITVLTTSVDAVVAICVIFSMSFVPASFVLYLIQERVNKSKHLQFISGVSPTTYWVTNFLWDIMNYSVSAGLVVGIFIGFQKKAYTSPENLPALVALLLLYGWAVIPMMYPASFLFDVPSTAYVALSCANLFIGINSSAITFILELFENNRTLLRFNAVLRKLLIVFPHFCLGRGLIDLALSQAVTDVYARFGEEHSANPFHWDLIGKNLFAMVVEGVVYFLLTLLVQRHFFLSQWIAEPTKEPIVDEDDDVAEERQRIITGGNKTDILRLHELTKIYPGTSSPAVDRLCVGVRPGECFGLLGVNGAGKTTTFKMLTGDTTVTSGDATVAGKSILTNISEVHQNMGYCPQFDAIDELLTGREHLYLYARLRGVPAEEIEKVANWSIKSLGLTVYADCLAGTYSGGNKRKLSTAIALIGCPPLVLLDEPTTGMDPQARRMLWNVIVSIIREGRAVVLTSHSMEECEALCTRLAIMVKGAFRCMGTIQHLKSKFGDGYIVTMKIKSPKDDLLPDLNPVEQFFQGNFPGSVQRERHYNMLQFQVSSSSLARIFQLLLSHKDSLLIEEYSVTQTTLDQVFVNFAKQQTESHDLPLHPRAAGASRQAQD
UniProt Q96GS6: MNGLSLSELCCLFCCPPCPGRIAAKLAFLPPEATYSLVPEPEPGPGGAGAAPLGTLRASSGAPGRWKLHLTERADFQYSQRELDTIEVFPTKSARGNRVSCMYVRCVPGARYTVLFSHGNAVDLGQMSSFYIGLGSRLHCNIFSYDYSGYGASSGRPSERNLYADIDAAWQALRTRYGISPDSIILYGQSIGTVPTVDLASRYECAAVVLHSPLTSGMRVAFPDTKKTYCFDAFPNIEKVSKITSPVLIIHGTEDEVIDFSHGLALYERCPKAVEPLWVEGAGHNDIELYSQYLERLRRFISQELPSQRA
UniProt Q8N2K0: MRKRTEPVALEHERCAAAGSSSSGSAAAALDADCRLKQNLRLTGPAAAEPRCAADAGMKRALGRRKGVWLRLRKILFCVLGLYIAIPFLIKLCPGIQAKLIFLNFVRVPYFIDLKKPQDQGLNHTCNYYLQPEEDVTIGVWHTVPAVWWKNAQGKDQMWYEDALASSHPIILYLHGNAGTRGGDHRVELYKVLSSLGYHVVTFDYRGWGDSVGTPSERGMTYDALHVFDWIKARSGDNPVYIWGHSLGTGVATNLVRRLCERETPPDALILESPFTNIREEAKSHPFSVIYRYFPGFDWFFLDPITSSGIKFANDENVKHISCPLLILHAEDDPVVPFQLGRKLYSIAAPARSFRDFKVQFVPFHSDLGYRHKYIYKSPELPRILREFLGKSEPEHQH

Legend:
Test in all cases: log2 fold change, soluble protein after heating vs DMSO (PISA); higher = thermal stabilisation; K562 lysate, 10 uM; active = over 0.2 and 3.5 SD of the protein, either way, in both replicates (recomputed)
[1] = compound: NCC(=O)Nc1ccc(-n2nc(C(F)(F)F)cc2-c2ccc3c(ccc4ccccc43)c2)cc1
Outline: (§1)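 Log-two fold change in thermal stability relative to solvent controls is reported from duplicates. For each sample, crude K562 extract from dounce-homogenised pellets in PBS pH 7.4 with 1 mM MgCl2, at 1 mg/mL protein, was treated with 10 μM compound for 30 min. Aliquots heated for 3 min across 48°C-58°C were pooled, brought to 0.5% NP-40 at 4°C and cleared at 21,000xg for 90 min. The supernatant was quantified by TMTpro 16plex LC-MS/MS with channel sums equalised.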

vorinostat = compound: O=C(CCCCCCC(=O)Nc1ccccc1)NO [vorinostat]
Outline: as §1

silmitasertib = compound: O=C(O)c1ccc2c(c1)nc(Nc1cccc(Cl)c1)c1ccncc12 [silmitasertib]
Outline: as §1

[2] = compound: O=C1NC(=O)C(c2cnc3ccccn23)=C1c1cn2c3c(cc(F)cc13)CN(C(=O)N1CCCCC1)CC2
Outline: as §1

entospletinib = compound: c1cn2cc(-c3ccc4cn[nH]c4c3)nc(Nc3ccc(N4CCOCC4)cc3)c2n1 [entospletinib]
Outline: as §1

Measured: log2 fold change

A0A494C100, A0A494C100
inactive: [1] 0.017

ACLY (UniProt P53396)
inactive: [1] -0.008 | vorinostat -0.029 | silmitasertib 0.012 | [2] -0.018 | entospletinib 0.014

ACO2 (UniProt Q99798)
inactive: [1] 0.036 | vorinostat 0.071 | silmitasertib -0.021 | [2] -0.003 | entospletinib 0.012

ABHD10 (UniProt Q9NUJ1)
inactive: [1] 0.036 | vorinostat 0.091 | silmitasertib -0.028 | [2] -0.015 | entospletinib -0.046

ABCB7 isoform 2 (UniProt O75027)
inactive: [1] -0.06 | vorinostat 0.24 | silmitasertib -0.025 | [2] -0.019 | entospletinib -0.022

ABLIM1 (UniProt O14639)
inactive: [1] 0.024 | vorinostat 0.007 | silmitasertib 0.106 | [2] 0.093 | entospletinib 0.033

ABCB8 (UniProt Q9NUT2)
inactive: [1] -0.01 | vorinostat -0.125 | silmitasertib -0.035 | [2] -0.015 | entospletinib -0.012

ACADS (UniProt P16219)
inactive: [1] -0.005 | vorinostat 0.217 | silmitasertib -0.089 | [2] 0.017 | entospletinib -0.021

AARS (UniProt P49588)
inactive: [1] -0.002 | vorinostat 0.001 | silmitasertib 0.015 | [2] -0.009 | entospletinib 0.017

ACBD6 (UniProt Q9BR61)
active: vorinostat -0.298
inactive: [1] -0.009 | silmitasertib 0.003 | [2] 0.028 | entospletinib -0.028

ABCF2 isoform 2 (UniProt Q9UG63)
active: vorinostat -0.326
inactive: [1] 0.103 | silmitasertib 0.054 | [2] 0.016 | entospletinib -0.028

Pulled one by one from the list above (two):
ACBD6 (UniProt Q9BR61)
active: vorinostat -0.298
inactive: [1] -0.009 | silmitasertib 0.003 | [2] 0.028 | entospletinib -0.028

ACADS (UniProt P16219)
inactive: [1] -0.005 | vorinostat 0.217 | silmitasertib -0.089 | [2] 0.017 | entospletinib -0.021

The list continues:

AAK1 (UniProt Q2M2I8)
inactive: [1] -0.007 | vorinostat -0.259 | silmitasertib 0.039 | [2] 0.42 | entospletinib 0.202

ACOT13 (UniProt Q9NPJ3)
inactive: [1] 0 | vorinostat 0.139 | silmitasertib -0.006 | [2] -0.006 | entospletinib 0.029

ABCD3 (UniProt P28288)
inactive: [1] -0.019 | vorinostat -0.164 | silmitasertib 0.113 | [2] -0.08 | entospletinib 0.034

AARS2 (UniProt Q5JTZ9)
active: vorinostat -0.243
inactive: [1] -0.004 | silmitasertib 0.085 | [2] 0.028 | entospletinib 0.035

ACIN1 (UniProt E7EQT4)
inactive: [1] 0.076 | vorinostat 0.079 | silmitasertib -0.013 | [2] -0.013 | entospletinib 0.021

ABHD14B (UniProt Q96IU4)
inactive: [1] -0.139 | vorinostat -0.125 | silmitasertib -0.011 | [2] 0.005 | entospletinib 0.003

ABL2 (UniProt P42684)
inactive: [1] -0.093 | vorinostat -0.274 | silmitasertib 0.073 | [2] -0.055 | entospletinib -0.05

ABHD17B (UniProt Q5VST6)
inactive: [1] 0.096 | vorinostat 0.219 | silmitasertib -0.021 | [2] 0.032 | entospletinib 0.2

ABCB10 (UniProt Q9NRK6)
inactive: [1] -0.06 | vorinostat 0.059 | silmitasertib 0.012 | [2] -0.01 | entospletinib 0.025

ABCA4 (UniProt P78363)
inactive: [1] 0.092 | vorinostat 0.054 | silmitasertib 0.008 | [2] 0.101 | entospletinib -0.009

ABHD11 (UniProt Q8NFV4)
inactive: [1] -0.001 | vorinostat 0.195 | [2] 0.003 | entospletinib 0.05
active: silmitasertib 0.324

ABHD17A isoform 2 (UniProt Q96GS6)
inactive: [1] 0.001 | silmitasertib -0.059 | [2] -0.025 | entospletinib 0.043
active: vorinostat 0.363

A0A0B4J2A0, A0A0B4J2A0
inactive: [1] 0.086 | vorinostat -0.01 | silmitasertib 0.001 | [2] 0.002 | entospletinib -0.014

ABHD12 isoform 2 (UniProt Q8N2K0)
inactive: [1] -0.003 | silmitasertib -0.026 | [2] -0.023 | entospletinib -0.023
active: vorinostat 0.392

ABCC1 (UniProt P33527)
inactive: [1] -0.015 | vorinostat 0.038 | silmitasertib 0.024 | [2] 0.01 | entospletinib -0.029

ACAD9 (UniProt Q9H845)
inactive: [1] -0.03 | vorinostat 0.041 | silmitasertib 0.026 | [2] -0.023 | entospletinib -0.005
